Here are results for eight compounds from the supplement of paper PMC8007513.

Structures are written as SMILES. This is one part of the list. Many values rest on one well or one pass, so single values are uncertain.

In the assay the test system is Saccharomyces cerevisiae BY4743. As to the kind of experiment: growth (OD600) with compound + IPBC relative to untreated control; higher = less growth inhibition. As to conditions: compound concentration: 133 uM; IPBC concentration: 0.5 ug/ml; 20 h. How it is done:
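NMCCC compounds (133 uM) combined with IPBC (0.5 ug/ml) against Saccharomyces cerevisiae BY4743 in YPD, 96-well plates. Growth was read as OD600 at 20 h and expressed as % of the untreated control. Single pass.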
As to `Cn1ncc2c(SCCC(=O)Nc3ccccc3F)ncnc21` + CCCCNC(=O)OCC#CI [3-iodo-2-propynyl butylcarbamate (IPBC)], the growth was 92.6%.

Turning to `COC(=O)c1cc(S(=O)(=O)N2CCN(C3CCCCC3)CC2)c[nH]1` + CCCCNC(=O)OCC#CI [3-iodo-2-propynyl butylcarbamate (IPBC)], the growth was 100%.

With `CC(C(=O)O)n1c(SCC(=O)N(C)CCOc2ccc(Cl)cc2)nnc1-c1cccs1` (stereo not drawn) + CCCCNC(=O)OCC#CI [3-iodo-2-propynyl butylcarbamate (IPBC)], the growth was 109%.

As to `CCOc1ccccc1C(=O)N(Cc1ccc(N(C)C)cc1)c1ccccn1` + CCCCNC(=O)OCC#CI [3-iodo-2-propynyl butylcarbamate (IPBC)], the growth is 114%.

`Cc1nc(-c2ccccc2)sc1C(=O)OC(C)C(=O)N1CCNC1=O` (stereo not drawn) + CCCCNC(=O)OCC#CI [3-iodo-2-propynyl butylcarbamate (IPBC)]: the growth amounted to 91.4%.

On to `CCS\C1=N\C2=CC=CC=C2C(=O)N1C3CCOC(C)(C)C3` (stereo not drawn) + CCCCNC(=O)OCC#CI [3-iodo-2-propynyl butylcarbamate (IPBC)], for which the growth came out at 100%.

In the case of `COc1ccc(C)cc1NC(=O)CC(C)(C(=O)O)c1ccccc1` (stereo not drawn) + CCCCNC(=O)OCC#CI [3-iodo-2-propynyl butylcarbamate (IPBC)], the growth came out at 105%.

Turning to `CCOC(=O)CNC(=O)c1sc2nc(C)cc(C)c2c1NC(=O)Cc1ccccc1` + CCCCNC(=O)OCC#CI [3-iodo-2-propynyl butylcarbamate (IPBC)], the growth stood at 104%.
